Data on one substance can be found in patent publication US20200397896A1, “Combination Therapies Comprising Daratumumab, Bortezomib, Thalidomide and Dexamethasone and Their Uses” (Janssen Biotech, Inc., priority 2019, published 2020).

The series relates to patients with multiple myeloma. Put plainly: Clinical trials pooled (monotherapy and combination treatments; N=2,066), safety. Conditions: human, in vivo.

For “DARZALEX: IgG1κ human monoclonal antibody against CD38; HC SEQ ID NO: 9, LC SEQ ID NO: 10”, the “Median duration of 16 mg/kg infusion, 1st week” value is given as “approximately 7 hours”; the “Median duration of 16 mg/kg infusion, 2nd week” value was about 4 h; the “Median duration of 16 mg/kg infusion, subsequent infusions” value was about 3 h.
